Measured values published in the supplement of paper PMC4371806.
In all, about 2,300 compounds were measured (“plate-normalized OD600 growth (mean of duplicates)”: median about 0.29, lowest 2% from about 0.22 on). The list shows a part of the results.

System: Escherichia coli BW25113
Assay: plate-normalized OD600 growth (mean of duplicates) (OD600 (normalized)); higher = more growth (less inhibition)
Details: 10 µM
Procedure: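 E. coli BW25113 in LB (100 µl, 96-well, no shaking) was exposed to 10 µM of each compound from a ~30,000-member library and grown at 37°C for 24 h or 15°C for 48 h, in duplicate. Growth was read as OD600 and the duplicate ODs were normalized across screening plates to correct plate-to-plate variation. Hits were >3σ below the mean OD600 at 15°C and <2σ below the mean at 37°C.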

SMILES	plate-normalized OD600 growth (temperature: 15°C, 48 h)	plate-normalized OD600 growth (temperature: 37°C, 24 h)
COc1ccc(-c2c(C)oc3ccc(Cl)cc23)cc1	0.247	0.609
COCc1cc(C)c2c(n1)sc1c2nc(C)n2c3ccccc3nc12	0.244	0.619
Cc1ccc(C)c(-c2cc(N=Nc3ccccc3C)c(O)o2)c1	0.247	0.619
COc1ccc(N2C(=O)c3ccc(Oc4cccc(N)c4)cc3C2=O)cc1	0.251	0.612
Cn1c(=O)n(CC(=O)Nc2nn(-c3ccccc3)nc2C(N)=O)c2ccccc21	0.261	0.639
Cc1noc(N)c1C(N)=S	0.247	0.612
Cc1ccc(-n2c(C)cc(/C=N/NC(=O)CN(Cc3ccccc3)S(=O)(=O)c3ccc(C)cc3)c2C)cc1	0.252	0.64
COc1cccc(NC(=O)CSCc2ccc(Cl)cc2)c1	0.241	0.62
COC(=O)CC1OC(=O)c2ccccc21 (stereo not given)	0.243	0.631
Cc1cc(C)c2nc3s/c(=C\c4ccccc4C(F)(F)F)c(=O)n3c2c1	0.249	0.593
O=C(O)c1cccc(-c2ccc(/C=c3/sc4nc(-c5ccccc5)c(-c5ccccc5)n4c3=O)o2)c1	0.259	0.641
O=C(O)c1nccnc1C(=O)O	0.242	0.622
CCNc1nc(Cl)nc(NCCNC(=O)COc2ccc(Cl)cc2Cl)n1	0.247	0.598
CSc1ccc(C(=O)O)s1	0.249	0.646
CC(C)(C)c1nccc(-c2nn(-c3ccc(F)cc3)ccc2=O)n1	0.271	0.618
O=c1cc(N2CCCC2)c2ccccc2o1	0.237	0.618
O=C(N/N=C/c1ccc(OC(=O)c2cccc(F)c2)cc1)C1=NNC(c2ccccc2)(c2ccccc2)C1	0.267	0.624
O=C1CCCc2c1c1ccccc1n2Cc1ccccc1	0.284	0.637
O=[N+]([O-])c1cc(Cl)cc(/C=N/NC(=Nc2ccccc2)c2ccccn2)c1O	0.22	0.625
N/C(=N\OC(=O)c1ccccc1F)c1nonc1N	0.26	0.619
CCOc1ccc(Nc2nnc(-c3ccncc3)s2)cc1	0.257	0.626
Cc1ccc(N=Cc2ccc(Sc3nc4ccccc4s3)o2)cc1	0.245	0.625
CCOC(=O)c1[nH]c(=O)[nH]c1CSc1ccccn1	0.245	0.621
FC(F)(F)c1ccnc(-n2ccc(-c3cccs3)n2)n1	0.277	0.637
O=c1occ(CO)c(O)c1CN1CCCCC1	0.259	0.621

SMILES	plate-normalized OD600 growth (temperature: 15°C, 48 h)	plate-normalized OD600 growth (temperature: 37°C, 24 h)
COC(=O)C1=C(C(=O)OC)SC(=CC(=S)c2ccccc2)S1	0.251	0.616
Cc1ccc(-n2cnnn2)cc1N	0.26	0.626
COc1ccc(C(=O)N2CCN(c3c(C)cccc3C)CC2)cc1OC	0.257	0.622
Cc1ccc(OCC(=O)NN)c2c1CCC2	0.245	0.605
Clc1ccc2nc(N3CCOCC3)nc(-c3ccccc3)c2c1	0.251	0.61
CCCCOc1ccc(C(CC(=O)c2ccc(OC)cc2)Nc2ccc(Br)cc2)cc1 (stereo not given)	0.245	0.61
O=C(OCc1ccccc1)c1cccc(-c2nnn(Cc3ccccc3)n2)c1	0.252	0.606
CCCc1ccc(OCC(=O)NNC(=S)Nc2ccccc2)cc1	0.244	0.618
COc1ccc(C2NC(=O)C(=O)C2=C(O)c2ccc(C)cc2)cc1 (stereo not given)	0.252	0.644
O=[N+]([O-])c1ccc(C2=Nn3c(nnc3C(F)(F)F)SC2)cc1	0.258	0.621
CCN(CC)c1ccc(/C=C(/NC(=O)c2ccccc2)C(=O)N/N=C/c2c(C)cc(O)c(C)c2O)cc1	0.23	0.599
CC(C)(Oc1ccccc1Cl)C(=O)Nc1ccc(Cc2ccncc2)cc1	0.242	0.606
O=C(Oc1ccc(N(C(=O)c2ccccc2)S(=O)(=O)c2cccs2)cc1)c1ccccc1	0.225	0.622
O=C(c1cc(Br)ccc1NS(=O)(=O)c1ccc(Cl)cc1)N1CCN(S(=O)(=O)c2ccc(Cl)cc2)CC1	0.26	0.613
O=C(Cn1nnc(-c2ccc3c(c2)OCO3)n1)N1CCOCC1	0.253	0.625
Nc1nonc1-c1noc(COc2c(F)c(F)cc(F)c2F)n1	0.234	0.615
COc1ccc(Nc2nc(N/N=C/c3ccc(-c4cccc(C(=O)O)c4)o3)nc(Nc3ccccc3)n2)cc1	0.226	0.634
COC(=O)C[n+]1ccn2c(C)ccc2c1C	0.242	0.619
CCOC(=O)C(=CNNC(=O)c1ccccc1-n1cccc1)C(=O)OCC	0.213	0.618
COc1ccc(S(=O)(=O)CCc2ccncc2)cc1	0.236	0.614
Cc1cc(C)c2c(-n3cccc3)c(C(=O)NCCO)sc2n1	0.254	0.609
CCn1c(C)c(C(C)=O)c(N2CCC(C(N)=O)CC2)nc1=S	0.232	0.607
Nc1nnnn1/N=C/c1ccc(-c2cccc(Cl)c2Cl)o1	0.247	0.601
C=Cn1c(C(=O)O)ccc1-c1ccc(C)cc1	0.254	0.645
CCOc1cccc(N2C(=O)CC(NNC(=O)c3ccccc3)C2=O)c1 (stereo not given)	0.246	0.603

Not a retest: an excerpt of the list.
SMILES	plate-normalized OD600 growth (temperature: 15°C, 48 h)	plate-normalized OD600 growth (temperature: 37°C, 24 h)
Clc1ccc2nc(N3CCOCC3)nc(-c3ccccc3)c2c1	0.251	0.61
CCCCOc1ccc(C(CC(=O)c2ccc(OC)cc2)Nc2ccc(Br)cc2)cc1 (stereo not given)	0.245	0.61
